# About 13,000 (3.2%) of roughly 400,000 compounds were called active. Inconclusive means that the source gave no clear call. Such entries were picked first, then a sample of the others. Calls follow the shape of the dose curve; as a rule, active = well fitted cell-killing curve with a large enough effect; inconclusive = small, poorly fitted or top-dose-only effect, or effect the other way; inactive = flat fitted curve, though single readings scatter. Where the call is inconclusive, the potency comes from a doubtful curve fit.
# Experiment: qHTS assay for MDR1-selective chemotherapeutics: Primary screen using the drug-selected MDR subline cells KB-V1; also: nearly all actives have a fitted effect of over 60% in size
# Conditions: KB-V1 MDR cells viability, CellTiter-Glo, 72 h; activity change, negative = cytotoxicity: at 46.1 µM (top of the series)
# Method in brief: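 Cells of the MDR subline KB-V1 are plated, dosed with compound at multiple concentrations, and incubated 72 h at 37 degrees C; CellTiter-Glo is then added and luminescence read after 10 min.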
# % is scaled to controls: 0 for no effect and ±100 for the full control effect; potency is read from the fitted curve at half-maximal effect.
Compound,"activity change, negative = cytotoxicity",Potency
O=CNc1c(Br)cc2c(c1Br)Cc1cc(Br)ccc1-2,inactive: -28.3%,–
Cc1ccccc1-n1nnnc1SC(C)C(=O)NC1CCCc2ccccc21 (centres undefined),–,active: 3.66 µM
O=C(CSc1ncn[nH]1)N/N=C/c1ccc(C(F)(F)F)cc1,–,"inconclusive: 29.1 µM [rising, single point]"
O=C1/C(=C/c2ccccc2)N=C(N2CCOCC2)N1c1cccc(Cl)c1,–,"inconclusive: 6.51 µM [cytotoxic, partial curve, poor fit]"
CN(C)c1nc(C=C(C#N)C#N)c(Cl)n1-c1ccc(F)cc1,–,"inconclusive: 23.1 µM [cytotoxic, single point]"
COc1ccc(CNCCC(c2ccc(OC)cc2)c2ccccc2OC)cc1 (centres undefined),–,"inconclusive: 18.4 µM [cytotoxic, single point]"
Cc1ccc(C(=O)NN(C)c2nc3ccccc3nc2C(F)(F)F)cc1,–,"inconclusive: 4.11 µM [cytotoxic, full curve, poor fit]"
CCC(=O)N(C)C[C@H]1Oc2ncc(C#Cc3ccncc3)cc2C(=O)N([C@@H](C)CO)C[C@@H]1C,inactive: -8.83%,–
CC(=O)CC(=O)Nc1ncccn1,inactive: -7.11%,–
COn1c(-c2ccc(Cl)cc2)nc2ccc(Cl)cc21,–,"inconclusive: 29.1 µM [cytotoxic, single point]"
CSc1ncccc1C(=O)N1CCN(C(=O)c2ccccc2)CC1,–,"inconclusive: 29.1 µM [rising, single point]"
CC1(C)CC(=O)c2cc(C(=O)NCCc3ccccc3)c(=O)[nH]c2C1,inactive: 22.7%,–
O=C(COC(=O)/C=C/c1ccc(Br)o1)NC1CCCCC1,–,"inconclusive: 29.1 µM [rising, partial curve, poor fit]"
O=C(CSc1nc2ccccc2s1)N1N=C(c2cccs2)CC1c1ccc(F)cc1 (centres undefined),–,"inconclusive: 13 µM [cytotoxic, single point]"
C=CCN(c1ccccc1Cl)S(=O)(=O)c1cc(C(=O)N2CCCC2)ccc1Cl,–,"inconclusive: 9.2 µM [cytotoxic, partial curve]"
O=C(Cn1cc(C(F)(F)F)ccc1=O)NCC1CCCO1 (centres undefined),inactive: 17.9%,–
CCN(Cc1ccccc1)C(c1cccc(C#N)c1)c1nnnn1C(C)(C)C (centres undefined),–,active: 13 µM
NC(=O)c1nsc(C(=O)N(Cc2ccc(F)cc2)C(C(=O)NC2CCCC2)c2ccco2)c1N (centres undefined),–,"inconclusive: 7.31 µM [cytotoxic, partial curve]"
COC(=O)C1CCN(C(=O)CN2C(=O)NC(CC(C)C)C2=O)CC1 (centres undefined),inactive: -4.52%,–
c1ccc(CCn2c(C3CC3)nc3ccccc32)cc1,–,active: 20.6 µM
CN(C)c1ccc(C(=O)c2ccc(O)cc2O)cc1,–,"inconclusive: 29.1 µM [cytotoxic, single point]"
O=C(NCc1ccccn1)c1ccc(Cn2cc(C(F)(F)F)ccc2=O)cc1,inactive: 2.27%,–
O=C(Nc1ccc(S(=O)(=O)N2CCCC2)cc1)c1cccnc1Cl,–,"inconclusive: 23.1 µM [cytotoxic, single point]"
CC(C)c1nnc(NC(=O)CCC(=O)N2CCN(Cc3ccccc3)CC2)s1,inactive: -7.62%,–

Compound,"activity change, negative = cytotoxicity",Potency
COc1ccc(C#CC2=CC(=O)CC(C)(C)C2)cc1,inactive: -7.38%,–
CN(C)/C=N/S(=O)(=O)c1ccc(Cl)cc1,–,"inconclusive: 29.1 µM [rising, single point]"
COC(=O)c1c(NC(=O)COc2cc(C)c(Cl)c(C)c2)sc2c1CCCC2,–,"inconclusive: 20.6 µM [rising, single point]"
CCOc1c(Br)cc(/C=C2\N=C(C)OC2=O)cc1Br,inactive: -0.199%,–
CC(=O)c1ccc(-n2nnnc2SCC(=O)Nc2sc(C)c(C)c2C#N)cc1,inactive: -21.8%,–
C/C(O)=C(\N=Nc1cc(C)ccc1O)C(N)=O,inactive: -26.5%,–
COc1ccc(-c2cc(C(F)(F)F)nc(SCCC(=O)Nc3cc(C)on3)n2)cc1,inactive: -2.08%,–
CCN(/N=C/C=C/c1ccccc1)c1cc(=O)n(C)c(=O)[nH]1,inactive: 0%,–
COC1CC(C)C(OC)c2cc(O)cc(c2O)NC(=O)C(C)=CC=CC(C)C(OC(N)=O)C(C)=CC(C)C1OC (centres undefined),inactive: -0.0898%,–
O=C(O)c1cc(S(=O)(=O)Nc2ccccc2Cc2ccccc2)ccc1Cl,–,"inconclusive: 0.0092 µM [rising, full curve, poor fit]"
CN(Cc1ccccc1)C(=O)CCC1CCN(C(=O)c2ccccc2C(F)(F)F)CC1,inconclusive: -33.5% [cytotoxic],–
N=C1C(c2ccc(Br)cc2)=C(O)C2CCc3ccccc3N12 (centres undefined),–,"inconclusive: 20.6 µM [cytotoxic, single point]"
CCn1nnc(NC(=O)COc2cc(C)ccc2C(C)C)n1,–,active: 14.6 µM
Cc1cn([C@H]2C[C@H](O)[C@@H](/C=C/C(=O)NCCCc3ccccc3)O2)c(=O)[nH]c1=O,–,"inconclusive: 29.1 µM [cytotoxic, single point]"
COCCNc1nc(NCc2ccc(C(C)C)cc2)c2sccc2n1,inactive: -2.3%,–
COc1cccc(NC(=O)Nc2ccc3nsnc3c2)c1,–,"inconclusive: 18.4 µM [cytotoxic, single point]"
CCc1nc2ccc(C(=O)N3CCNC(=O)C3)cn2c1N(C)CCC(C)C,inactive: -8.67%,–
C[C@H]1CN([C@@H](C)CO)C(=O)CCCn2nncc2CO[C@H]1CN(C)S(=O)(=O)c1ccc(F)cc1,inactive: 4.76%,–
COc1ncc(-c2ccc3c(c2)S(=O)(=O)c2cccc(C(=O)O)c2C3=O)cn1,–,"inconclusive: 29.1 µM [rising, single point]"
COc1ccc(CCNCC(=O)Nc2ccc(C)c(S(=O)(=O)N(C)C)c2)cc1,–,"inconclusive: 2.91 µM [cytotoxic, full curve]"
CCCNC(=O)NC(=O)CN1CCCC1c1ccc2c(c1)OCCO2 (centres undefined),inconclusive: -26.2%,–
O=C(CNC(=O)c1ccc(Br)o1)Nc1cccc(-c2cnc3ccccc3n2)c1,inactive: 1.02%,–
CCCc1nc2ccccc2c(=O)n1/N=C/c1c(C)[nH]n(-c2ccc(C)cc2)c1=O,–,active: 16.4 µM
COc1cc(/C=C(/C#N)c2ccc(C)cc2)ccc1Oc1ccc([N+](=O)[O-])cn1,–,"inconclusive: 29.1 µM [cytotoxic, single point]"

# Retrieved by structure from the list above (2):
Compound,"activity change, negative = cytotoxicity",Potency
C/C(O)=C(\N=Nc1cc(C)ccc1O)C(N)=O,inactive: -26.5%,–
CN(Cc1ccccc1)C(=O)CCC1CCN(C(=O)c2ccccc2C(F)(F)F)CC1,inconclusive: -33.5% [cytotoxic],–
